Values quoted from earlier work as cited in patent US20100215737A1, “COMBINATION PHARMACEUTICAL COMPOSITIONS” (priority 2007, published 2010).
At least one structure is not confirmed: it was looked up by name or label, or the drawing left a doubt.

What was measured:
cerebellar slices = settings: incubation of cerebellar slices
subarachnoid hemorrhage = settings: human, in vivo
cerebral vasospasm = settings: intravenous replacing oral; spastic cerebral vessels
[1] = test system: endothelial nitric oxide synthase (eNOS); settings: mouse, in vivo

Structure (SMILES)	synaptic dendritic claw formation (cerebellar slices)	risk of cerebral infarction and poor outcome in SAH (subarachnoid hemorrhage)	peak systolic flow velocities (PSV) (cerebral vasospasm)	cerebral blood flow (CBF) [1]	eNOS expression [1]
COCCOC(=O)C1=C(C)NC(C)=C(C(=O)OC(C)C)C1c1cccc([N+](=O)[O-])c1 (centres unmarked) [Nimodipine]	increased synaptic dendritic claw formation	significantly reduces the risk of cerebral infarction and poor outcome in SAH	significant reduction of peak systolic flow velocities (PSV)		
CCC(C)(C)C(=O)O[C@H]1C[C@@H](C)C=C2C=C[C@H](C)[C@H](CC[C@@H]3C[C@@H](O)CC(=O)O3)[C@H]21 [Simvastatin]				augmentation of cerebral blood flow	upregulates endothelial nitric oxide synthase (eNOS)
